Among the data in paper PMC8047169 are binding values, retold here.

These are yes or no findings as the source states them, for the method shown. Sequences can lack the tags named with a protein.

Assay [1] concerns the target T1, His-CowN (Gluconacetobacter diazotrophicus CowN, His-tagged, refolded, monomeric fraction) (Gluconacetobacter diazotrophicus) (UniProt A9H4F6).
T1 sequence: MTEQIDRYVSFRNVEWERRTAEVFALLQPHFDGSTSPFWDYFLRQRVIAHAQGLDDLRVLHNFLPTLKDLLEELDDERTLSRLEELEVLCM
As to the kind of experiment: SEC + other: dynamic light scattering; S75 gel filtration and DLS at room temperature, 25 mM HEPES pH 8, 25 mM NaCl; gel filtration size 19.4 kDa, DLS radius 1.96 ± 0.25 nm (15 to 18 kDa); both purified. A general note: In gel filtration, larger molecules generally elute earlier.

Assay [2] concerns the target T2, iron-protein (FeP) of Gluconacetobacter diazotrophicus Mo-nitrogenase (Gluconacetobacter diazotrophicus) (UniProt Q9ZIE4).
T2 sequence: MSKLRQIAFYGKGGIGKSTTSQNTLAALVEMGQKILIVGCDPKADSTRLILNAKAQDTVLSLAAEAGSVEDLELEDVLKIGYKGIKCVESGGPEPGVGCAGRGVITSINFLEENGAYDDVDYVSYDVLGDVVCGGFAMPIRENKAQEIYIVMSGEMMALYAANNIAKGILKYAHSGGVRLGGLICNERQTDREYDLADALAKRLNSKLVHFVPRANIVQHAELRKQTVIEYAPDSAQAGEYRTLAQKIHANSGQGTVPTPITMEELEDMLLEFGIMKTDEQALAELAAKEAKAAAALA
As to the kind of experiment: cross-linking; EDC 12.5 mM, 30 min; 50 mM HEPES pH 8, 60 mM NaCl, 5 mM DT; 2.5 μM MoFeP, 15 μM FeP, 15 μM CowN; nonturnover and turnover (5 mM MgCl2, 5 mM ATP) conditions with 0.1 atm CO; SDS-PAGE; both purified.

Assay [3] has as its target T1, His-CowN (Gluconacetobacter diazotrophicus CowN, His-tagged, refolded, monomeric fraction) (Gluconacetobacter diazotrophicus). As to the kind of experiment: pull-down; His-CowN on Ni-NTA resin, 10 min incubation, three washes; 50 mM Tris pH 8, 60 mM NaCl, 1 mM DT; 2.5 μM MoFeP, 15 μM FeP, 15 μM CowN; nonturnover and turnover conditions with CO; SDS-PAGE; both purified.

B1: His-CowN (Gluconacetobacter diazotrophicus CowN, His-tagged, refolded, monomeric fraction) (protein, UniProt A9H4F6 1-91)
chain: MTEQIDRYVSFRNVEWERRTAEVFALLQPHFDGSTSPFWDYFLRQRVIAHAQGLDDLRVLHNFLPTLKDLLEELDDERTLSRLEELEVLCM
As to B1, the binding result is “no binding” in assay [1] and “no binding (tested: 15 μM CowN, 15 μM FeP)” in assay [2].

B2: iron-protein (FeP) of Gluconacetobacter diazotrophicus Mo-nitrogenase (protein, UniProt Q9ZIE4 1-298)
chain: MSKLRQIAFYGKGGIGKSTTSQNTLAALVEMGQKILIVGCDPKADSTRLILNAKAQDTVLSLAAEAGSVEDLELEDVLKIGYKGIKCVESGGPEPGVGCAGRGVITSINFLEENGAYDDVDYVSYDVLGDVVCGGFAMPIRENKAQEIYIVMSGEMMALYAANNIAKGILKYAHSGGVRLGGLICNERQTDREYDLADALAKRLNSKLVHFVPRANIVQHAELRKQTVIEYAPDSAQAGEYRTLAQKIHANSGQGTVPTPITMEELEDMLLEFGIMKTDEQALAELAAKEAKAAAALA
On to B2, for which the binding result in assay [3] is given as “no binding (tested: 15 μM CowN, 15 μM FeP)”.
